Experiment [1] addresses T1, 3X FLAG ADR-1 dsRBD1 (K223E, K224A, K227A) (C. elegans) (UniProt Q9U3D6).
T1 sequence: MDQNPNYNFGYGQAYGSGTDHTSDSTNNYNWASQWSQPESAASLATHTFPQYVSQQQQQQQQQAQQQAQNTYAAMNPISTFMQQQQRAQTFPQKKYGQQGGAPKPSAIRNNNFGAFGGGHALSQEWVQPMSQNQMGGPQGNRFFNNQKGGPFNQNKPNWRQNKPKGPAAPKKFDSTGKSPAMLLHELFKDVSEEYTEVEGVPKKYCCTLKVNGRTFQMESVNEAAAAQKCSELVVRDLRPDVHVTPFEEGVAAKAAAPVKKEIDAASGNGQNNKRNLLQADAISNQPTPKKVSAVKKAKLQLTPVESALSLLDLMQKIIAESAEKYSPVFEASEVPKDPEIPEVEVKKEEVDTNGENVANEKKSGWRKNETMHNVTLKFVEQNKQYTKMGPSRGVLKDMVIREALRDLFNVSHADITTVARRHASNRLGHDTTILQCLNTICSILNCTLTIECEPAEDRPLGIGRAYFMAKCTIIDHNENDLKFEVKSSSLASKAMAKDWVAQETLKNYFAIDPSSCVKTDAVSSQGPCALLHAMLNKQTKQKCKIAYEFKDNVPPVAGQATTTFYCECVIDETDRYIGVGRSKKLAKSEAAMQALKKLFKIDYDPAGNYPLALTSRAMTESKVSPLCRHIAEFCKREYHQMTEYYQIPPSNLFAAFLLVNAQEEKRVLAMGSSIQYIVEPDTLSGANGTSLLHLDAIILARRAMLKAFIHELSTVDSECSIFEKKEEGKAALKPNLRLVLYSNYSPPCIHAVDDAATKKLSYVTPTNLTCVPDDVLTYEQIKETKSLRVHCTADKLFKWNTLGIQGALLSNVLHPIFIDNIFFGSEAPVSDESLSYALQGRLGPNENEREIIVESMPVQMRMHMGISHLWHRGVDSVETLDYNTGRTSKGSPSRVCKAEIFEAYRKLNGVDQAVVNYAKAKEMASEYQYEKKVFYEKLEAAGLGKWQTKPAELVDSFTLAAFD
Description: co-IP; ADR-1 IP with anti-FLAG magnetic beads from lysates of L1 animals without UV crosslinking; 1 h at 4°C; washes with 0.5 M NaCl, 160 mM Tris-HCl pH 7.5, 0.1% NP-40, 0.25% Triton X-100; blot with VIG-1 antibody; animals treated with control or gsk-3 RNAi.

By UniProt entry, the sequences of proteins in these tests, tags left out. Where a name states a change or a piece, a line headed by the entry shows the natural chain unless it says otherwise.
UniProt H2KYR1: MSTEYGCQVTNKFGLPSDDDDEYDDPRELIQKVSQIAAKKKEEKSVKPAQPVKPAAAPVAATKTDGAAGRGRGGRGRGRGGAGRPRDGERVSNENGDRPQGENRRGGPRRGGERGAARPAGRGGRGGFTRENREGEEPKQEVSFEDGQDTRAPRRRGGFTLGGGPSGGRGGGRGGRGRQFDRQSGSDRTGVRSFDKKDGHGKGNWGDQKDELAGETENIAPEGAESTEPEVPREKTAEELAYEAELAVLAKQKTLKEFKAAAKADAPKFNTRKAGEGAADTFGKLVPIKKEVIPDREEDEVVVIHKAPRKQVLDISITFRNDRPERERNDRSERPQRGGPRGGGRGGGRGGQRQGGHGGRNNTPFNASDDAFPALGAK

Experiment [2] addresses T2, 3X FLAG ADR-1 (C. elegans) (UniProt Q9U3D6).
T2 sequence: T1 sequence with E223K, A224K, A227K
The experiment is described as above.

The text below walks through data of paper PMC12362252.

Positions count from the first letter of the chain named. Results are given in words; binding and its absence hold for the method and conditions named. In cells and extracts the contact can be indirect. Binding can be weak; no strength is given. Where a sequence is shown, tags or fusion partners need not be part of it.

For the substance VIG-1 (from UniProt H2KYR1), the binding result in experiment [1] and in experiment [2] was “binds” in each case.
